Taken from: PubChem BioAssay AID686943 (Drosophila RNAi Screening Center, 2013)

Test: 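Search across the genome for regulators of signalling from receptor tyrosine kinase to ERK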 (primary screen)
System: Drosophila S2R+ haemocyte-like cells expressing YFP-tagged ERK (Rolled)
Reagent: long dsRNA against Drosophila genes
Conditions: insulin stimulation versus unstimulated cells; dose and duration not given
Read-out: 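Per-plate z-scores of phospho-ERK immunostaining normalised to YFP-tagged ERK, measured with and without insulin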
Scale: replicate 1, z-score of dpERK with insulin and replicate 2, z-score of dpERK with insulin: higher = more active ERK per ERK-YFP after insulin; replicate 1, z-score of dpERK under basal conditions: higher = more basal active ERK per ERK-YFP; replicate 1, z-score of ERK-YFP with insulin: higher = more YFP-tagged ERK signal
The deposit covers about 23,000 reagents; this is an unselected part of those that have a named target and a result. 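Extra replicates exist only for a retested subset of genes; insulin dose and duration not given; both raised and lowered dpERK matter.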 A plus sign joins genes that one reagent is predicted to hit. No sequences are given here. Not stated in the record: the amount of reagent, the time to read-out.

target gene | dsRNA | replicate 1, z-score of dpERK with insulin | replicate 2, z-score of dpERK with insulin | replicate 1, z-score of dpERK under basal conditions | replicate 1, z-score of ERK-YFP with insulin
CG5808 | DRSC14124 | 0.67 | -0.32 | 0.02 | -1.14
TAF1B | DRSC16001 | 0.2 | 0.22 | 0.12 | 0.15
vers (versatile) | DRSC10715 | -0.44 | -0.61 | 0.25 | -0.17
CG17294 | DRSC02596 | 0.07 | -0.54 | -0.07 | -0.21
Gmppa (GDP-mannose pyrophosphorylase A) | DRSC07108 | 0.35 | 0.25 | -0.03 | 0.14
alien + CG17906 | DRSC02641 | 1.25 | 0.57 | -0.41 | -1.26
Acyp (Acylphosphatase) | DRSC01861 | -0.24 | -0.22 | 0.73 | -0.35
CG15580 | DRSC12266 | -0.11 | 1.26 | -0.52 | -0.1
alpha-PheRS (Phenylalanyl-tRNA synthetase, alpha-subunit) | DRSC18224 | 1.04 | 2 | -0.33 | 0.38
CG8910 | DRSC07414 | -0.56 | -0.41 | 1.19 | 0.61
Cow | DRSC13601 | -0.55 | -0.44 | -1.81 | -0.85
Cow | DRSC14680 | 0.29 | 0.05 | -0.33 | 0.29
Alg-2 (Apoptosis-linked gene-2) | DRSC07799 | -0.23 | -0.56 | 0.82 | -0.11
CG14275 | DRSC02379 | 0.1 | 0.25 | -0.01 | -0.82
Kdsr (3-ketodihydrosphingosine reductase) | DRSC14245 | -0.26 | 0.47 | -0.31 | 0.96
CG6465 | DRSC16046 | 0.13 | 0.01 | -0.12 | -0.25
Eig71Eb (Ecdysone-induced gene 71Eb) | DRSC11149 | -0.14 | 0.79 | 1.77 | 0.49
stck (steamer duck) | DRSC17070 | 0.24 | -0.66 | 0.04 | 0.14
Six4 | DRSC11881 | 0.59 | -0.01 | -1.17 | 0.01
CG13155 | DRSC06280 | 0.22 | 0.14 | 0.2 | 1.09
CG17562 | DRSC15243 | -0.26 | -0.47 | 0.05 | 0.2
fry (furry) | DRSC08993 | 0.45 | 0.73 | 1.18 | -0.68
fry (furry) | DRSC10172 | -0.84 | -0.98 | -0.24 | 0.91
fry (furry) | DRSC10709 | -0.63 | -0.98 | 0.4 | 0.45
fry (furry) | DRSC10712 | -0.62 | -2.45 | 0.11 | -0.22
mah (mahogany) | DRSC14645 | -0.14 | -1.09 | 2.32 | 0.45
Cyp312a1 (Cytochrome P450 312a1) | DRSC11128 | -1.09 | -0.52 | 0.35 | 0.38
Ubx (Ultrabithorax) | DRSC16891 | 0.59 | -0.61 | -1.05 | -0.25
CG4199 | DRSC18519 | 0.19 | -0.61 | -0.21 | 0.13
CG4199 | DRSC21314 | -1.57 | -2.11 | 0.99 | 0.43
Cyp4ac1 (Cytochrome P450 4ac1) | DRSC03302 | 0.8 | -0.11 | -0.52 | 1.7
CG7755 | DRSC07040 | 1.38 | 0.06 | -0.05 | -0.48
CG42342 | DRSC13165 | 0.88 | 0.67 | 0.81 | 0.02
CG42342 | DRSC14378 | -2.1 | -5.88 | -3.13 | -6.07
CG42342 | DRSC15010 | 1.71 | 0.16 | -2.26 | -0.6
CG42342 | DRSC15011 | 0.9 | 0.17 | -0.65 | -0.18
CG42342 | DRSC15012 | 1.11 | 0.06 | 1.18 | 0.38
CG42342 | DRSC21791 | -0.19 | 0.24 | 0.02 | 1.03
CG42342 | DRSC22861 | 0.24 | 1.49 | 2.27 | 0.03
cDIP (Common Dpr-interacting protein) | DRSC14267 | 0.27 | -1.17 | 0.09 | 0.11
CG31681 | DRSC00107 | 0.31 | 0.73 | 0.68 | -0.33
CG34425 | DRSC12210 | 1.2 | 0.18 | -0.08 | 0.02
CG34425 | DRSC22315 | -1.71 | 0.87 | -0.28 | 0.27

Reformatted: 5 of the entries above.
CG4199 [DRSC21314] | replicate 1, z-score of dpERK with insulin: -1.57; replicate 2, z-score of dpERK with insulin: -2.11; replicate 1, z-score of dpERK under basal conditions: 0.99; replicate 1, z-score of ERK-YFP with insulin: 0.43
Cyp4ac1 (Cytochrome P450 4ac1) [DRSC03302] | replicate 1, z-score of dpERK with insulin: 0.8; replicate 2, z-score of dpERK with insulin: -0.11; replicate 1, z-score of dpERK under basal conditions: -0.52; replicate 1, z-score of ERK-YFP with insulin: 1.7
CG7755 [DRSC07040] | replicate 1, z-score of dpERK with insulin: 1.38; replicate 2, z-score of dpERK with insulin: 0.06; replicate 1, z-score of dpERK under basal conditions: -0.05; replicate 1, z-score of ERK-YFP with insulin: -0.48
CG42342 [DRSC13165] | replicate 1, z-score of dpERK with insulin: 0.88; replicate 2, z-score of dpERK with insulin: 0.67; replicate 1, z-score of dpERK under basal conditions: 0.81; replicate 1, z-score of ERK-YFP with insulin: 0.02
CG42342 [DRSC14378] | replicate 1, z-score of dpERK with insulin: -2.1; replicate 2, z-score of dpERK with insulin: -5.88; replicate 1, z-score of dpERK under basal conditions: -3.13; replicate 1, z-score of ERK-YFP with insulin: -6.07

More entries follow:
target gene | dsRNA | replicate 1, z-score of dpERK with insulin | replicate 2, z-score of dpERK with insulin | replicate 1, z-score of dpERK under basal conditions | replicate 1, z-score of ERK-YFP with insulin
eEF2 (eukaryotic translation elongation factor 2) | DRSC03737 | -1.87 | -1.45 | -2.65 | -0.54
CG14764 | DRSC05072 | -0.66 | -0.16 | 1.53 | -0.58
CG14764 | DRSC06498 | 0.06 | -1.42 | 0.3 | -0.08
CG14764 | DRSC06844 | 0.21 | 0.68 | 0.84 | 0.39
Mvb12 (Multivesicular body subunit 12) | DRSC20027 | -0.36 | -0.68 | 0.04 | 0.52
Fs (Follistatin) | DRSC06258 | 1.06 | 1.24 | 2.23 | -0.92
Fs (Follistatin) | DRSC06259 | 1.7 | 0.86 | -0.21 | -0.2
CG43254 | DRSC12638 | 1.17 | 0.23 | 0.52 | -1.39
cup | DRSC03516 | -1.12 | -0.02 | -0.43 | -0.32
CG31207 | DRSC21886 | -0.16 | 0.48 | -0.44 | 0.18
HUWE1 | DRSC20089 | 0.41 | 0.66 | 0.71 | -0.16
Taf8 (TBP-associated factor 8) | DRSC20363 | 0.12 | 0.86 | -1.84 | 2.12
CG12017 | DRSC08225 | -0.23 | -0.14 | -1.19 | 0.68
CG31806 | DRSC02787 | 1.34 | 1.78 | 0.22 | -2.38
CG34286 | DRSC13372 | 0.89 | 0.71 | 0.56 | 0.55
CG34286 | DRSC21790 | -1.24 | -1.04 | -0.09 | 0.43
CG15715 | DRSC10216 | 0.41 | 0.3 | 0.58 | 0.22
CG42306 + Gint3 | DRSC06934 | -0.27 | -0.13 | -0.13 | -1.26
CG33258 | DRSC09415 | 0.17 | 0.69 | 0.77 | -0.03
Papss (PAPS synthetase) | DRSC11246 | 0.06 | 0.03 | -0.89 | 0.21
PolD3 (DNA polymerase delta subunit 3) | DRSC01961 | -0.41 | -0.25 | -0.05 | 0.18
Rab9Db + Rab9D + Rab9Fa + 1 more | DRSC17662 | -0.17 | 0.01 | -0.42 | -0.45
yellow-b | DRSC03639 | -0.56 | -0.28 | 0.91 | 0.41
HLH3B (Helix loop helix protein 3B) | DRSC18669 | 0.33 | -0.12 | 0.6 | -0.36
RpLP0 (Ribosomal protein LP0) | DRSC11878 | -1.29 | -1.75 | 0.53 | -2.62
RpLP0 (Ribosomal protein LP0) | DRSC22110 | -1.54 | -1.64 | 7.14 | -4.01
CG9254 | DRSC01969 | 0.37 | -0.53 | 0.14 | -0.07
CadN (Cadherin-N) | DRSC03286 | 0.75 | 0.43 | -0.84 | -0.14
tmod (tropomodulin) | DRSC13993 | -0.36 | 0.43 | -0.96 | 0.27
tmod (tropomodulin) | DRSC14314 | -0.63 | -0.19 | -1.13 | -0.24
tmod (tropomodulin) | DRSC15076 | 2.1 | -0.2 | 0.05 | -0.03
tmod (tropomodulin) | DRSC17062 | -0.46 | -0.06 | -0.43 | 0.49
